log2 fold change data for 40 targets are collected here from the supplement of paper PMC12819154, “High-throughput peptide-centric local stability assay extends protein–ligand identification to membrane proteins, tissues and bacteria” (Nature Structural & Molecular Biology, 2025).

Amino acid sequences for entries named in this document (tags omitted). A change or cut given only in a name is not applied to a line headed by its entry.
UniProt P07026: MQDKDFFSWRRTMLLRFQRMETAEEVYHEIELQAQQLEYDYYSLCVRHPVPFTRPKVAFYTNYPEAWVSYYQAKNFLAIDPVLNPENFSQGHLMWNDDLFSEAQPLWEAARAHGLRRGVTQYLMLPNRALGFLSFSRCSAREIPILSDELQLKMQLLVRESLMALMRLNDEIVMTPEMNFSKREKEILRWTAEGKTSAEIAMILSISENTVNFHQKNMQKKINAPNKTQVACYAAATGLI
UniProt P09162: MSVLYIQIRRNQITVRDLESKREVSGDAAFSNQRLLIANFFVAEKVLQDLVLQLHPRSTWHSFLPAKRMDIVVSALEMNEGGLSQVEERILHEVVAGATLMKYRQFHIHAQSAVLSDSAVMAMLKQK
UniProt P06965: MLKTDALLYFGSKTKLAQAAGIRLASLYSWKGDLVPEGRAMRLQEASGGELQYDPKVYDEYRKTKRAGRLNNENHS
UniProt P09835: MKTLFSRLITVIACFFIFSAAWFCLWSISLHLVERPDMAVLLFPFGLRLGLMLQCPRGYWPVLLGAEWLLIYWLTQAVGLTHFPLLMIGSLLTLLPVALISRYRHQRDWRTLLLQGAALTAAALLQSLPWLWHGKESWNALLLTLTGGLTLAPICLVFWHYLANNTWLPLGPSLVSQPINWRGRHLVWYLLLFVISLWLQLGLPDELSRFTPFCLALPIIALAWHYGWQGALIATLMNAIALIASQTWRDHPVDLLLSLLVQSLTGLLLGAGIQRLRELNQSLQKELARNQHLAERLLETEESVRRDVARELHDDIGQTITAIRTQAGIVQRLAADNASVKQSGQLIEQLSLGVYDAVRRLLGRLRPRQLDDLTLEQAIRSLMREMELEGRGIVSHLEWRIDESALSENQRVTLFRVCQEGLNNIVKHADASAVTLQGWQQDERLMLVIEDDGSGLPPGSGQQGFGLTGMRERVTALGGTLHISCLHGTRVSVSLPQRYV
UniProt P08190: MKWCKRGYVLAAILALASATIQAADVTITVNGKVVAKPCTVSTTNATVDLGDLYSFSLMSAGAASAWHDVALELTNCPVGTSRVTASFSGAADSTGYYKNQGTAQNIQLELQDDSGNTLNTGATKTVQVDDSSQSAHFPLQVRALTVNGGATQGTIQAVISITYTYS
UniProt P09549: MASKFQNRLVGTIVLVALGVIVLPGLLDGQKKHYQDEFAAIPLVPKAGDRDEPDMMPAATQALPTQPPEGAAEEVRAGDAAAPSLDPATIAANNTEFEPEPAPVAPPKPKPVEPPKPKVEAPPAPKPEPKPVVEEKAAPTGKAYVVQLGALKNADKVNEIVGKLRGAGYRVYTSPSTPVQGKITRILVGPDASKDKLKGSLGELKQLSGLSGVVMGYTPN
UniProt P09154: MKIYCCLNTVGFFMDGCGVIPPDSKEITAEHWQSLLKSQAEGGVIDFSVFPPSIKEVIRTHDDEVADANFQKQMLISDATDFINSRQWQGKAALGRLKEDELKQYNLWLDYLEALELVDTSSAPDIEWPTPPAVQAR
UniProt P09127: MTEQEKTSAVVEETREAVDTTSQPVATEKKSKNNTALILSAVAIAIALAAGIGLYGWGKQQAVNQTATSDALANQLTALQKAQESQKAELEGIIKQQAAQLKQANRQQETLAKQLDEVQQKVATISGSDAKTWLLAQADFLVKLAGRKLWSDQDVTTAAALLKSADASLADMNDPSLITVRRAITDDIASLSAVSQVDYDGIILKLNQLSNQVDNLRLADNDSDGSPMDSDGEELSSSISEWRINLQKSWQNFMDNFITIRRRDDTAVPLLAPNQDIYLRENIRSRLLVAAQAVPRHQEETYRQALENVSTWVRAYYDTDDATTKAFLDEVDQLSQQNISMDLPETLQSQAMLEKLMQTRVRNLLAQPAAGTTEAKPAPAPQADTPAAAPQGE
UniProt P06968, whole entry, looked up: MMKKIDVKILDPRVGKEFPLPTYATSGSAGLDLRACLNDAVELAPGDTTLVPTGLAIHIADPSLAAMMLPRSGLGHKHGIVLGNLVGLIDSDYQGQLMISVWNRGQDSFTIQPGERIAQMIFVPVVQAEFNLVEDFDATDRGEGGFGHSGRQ
UniProt P08331: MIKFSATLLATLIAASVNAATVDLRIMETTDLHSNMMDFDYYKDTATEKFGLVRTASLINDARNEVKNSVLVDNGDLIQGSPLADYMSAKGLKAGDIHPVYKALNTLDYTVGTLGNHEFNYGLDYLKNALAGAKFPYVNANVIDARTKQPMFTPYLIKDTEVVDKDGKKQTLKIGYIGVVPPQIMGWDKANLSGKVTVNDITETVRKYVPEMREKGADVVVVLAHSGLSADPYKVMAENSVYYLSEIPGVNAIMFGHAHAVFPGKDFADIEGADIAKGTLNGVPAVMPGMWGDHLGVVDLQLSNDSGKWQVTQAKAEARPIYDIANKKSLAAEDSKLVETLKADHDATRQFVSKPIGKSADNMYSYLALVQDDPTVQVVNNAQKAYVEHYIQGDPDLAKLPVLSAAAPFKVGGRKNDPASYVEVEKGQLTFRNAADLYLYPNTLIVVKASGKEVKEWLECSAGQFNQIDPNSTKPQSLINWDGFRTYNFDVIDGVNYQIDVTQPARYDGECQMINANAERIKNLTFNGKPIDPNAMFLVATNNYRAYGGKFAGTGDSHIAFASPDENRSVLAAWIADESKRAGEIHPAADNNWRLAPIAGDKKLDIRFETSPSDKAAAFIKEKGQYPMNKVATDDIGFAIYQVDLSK
UniProt P06715: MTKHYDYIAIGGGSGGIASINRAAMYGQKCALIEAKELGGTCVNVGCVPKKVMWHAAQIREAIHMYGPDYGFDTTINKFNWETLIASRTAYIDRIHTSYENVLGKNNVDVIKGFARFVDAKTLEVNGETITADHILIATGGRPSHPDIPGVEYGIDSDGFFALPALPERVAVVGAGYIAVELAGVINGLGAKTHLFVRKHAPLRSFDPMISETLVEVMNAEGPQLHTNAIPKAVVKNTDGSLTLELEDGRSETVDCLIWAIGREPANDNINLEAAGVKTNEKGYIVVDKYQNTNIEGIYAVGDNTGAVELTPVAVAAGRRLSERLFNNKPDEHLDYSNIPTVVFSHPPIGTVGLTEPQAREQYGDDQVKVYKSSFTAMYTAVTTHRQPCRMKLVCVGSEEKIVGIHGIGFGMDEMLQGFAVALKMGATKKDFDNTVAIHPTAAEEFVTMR
UniProt P07330: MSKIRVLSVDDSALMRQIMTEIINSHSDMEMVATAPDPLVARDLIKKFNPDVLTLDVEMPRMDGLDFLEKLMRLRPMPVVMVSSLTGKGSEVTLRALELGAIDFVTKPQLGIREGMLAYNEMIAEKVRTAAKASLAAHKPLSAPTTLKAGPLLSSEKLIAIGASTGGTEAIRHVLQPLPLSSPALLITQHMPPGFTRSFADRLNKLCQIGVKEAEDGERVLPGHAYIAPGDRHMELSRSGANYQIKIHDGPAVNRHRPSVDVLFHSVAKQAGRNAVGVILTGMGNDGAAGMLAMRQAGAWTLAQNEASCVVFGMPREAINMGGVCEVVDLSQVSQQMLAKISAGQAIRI
UniProt P07658, whole entry: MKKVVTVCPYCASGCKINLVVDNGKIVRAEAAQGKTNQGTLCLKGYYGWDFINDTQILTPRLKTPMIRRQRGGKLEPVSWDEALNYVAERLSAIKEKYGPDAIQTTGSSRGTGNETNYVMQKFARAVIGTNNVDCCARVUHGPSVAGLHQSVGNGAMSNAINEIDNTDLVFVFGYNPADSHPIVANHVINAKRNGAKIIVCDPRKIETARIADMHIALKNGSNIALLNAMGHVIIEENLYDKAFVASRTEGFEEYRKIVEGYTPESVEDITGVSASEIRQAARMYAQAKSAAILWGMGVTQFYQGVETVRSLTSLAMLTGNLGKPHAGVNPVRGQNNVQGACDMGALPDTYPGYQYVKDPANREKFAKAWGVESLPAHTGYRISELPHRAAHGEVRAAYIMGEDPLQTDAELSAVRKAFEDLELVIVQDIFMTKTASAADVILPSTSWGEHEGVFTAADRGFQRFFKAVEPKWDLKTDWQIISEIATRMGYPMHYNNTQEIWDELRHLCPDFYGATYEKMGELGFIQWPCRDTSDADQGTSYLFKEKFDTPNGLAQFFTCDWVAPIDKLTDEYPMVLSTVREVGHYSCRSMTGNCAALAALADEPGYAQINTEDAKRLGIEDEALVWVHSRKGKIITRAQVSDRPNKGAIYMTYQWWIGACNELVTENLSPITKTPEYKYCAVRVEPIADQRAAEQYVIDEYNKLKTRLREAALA
UniProt P09148: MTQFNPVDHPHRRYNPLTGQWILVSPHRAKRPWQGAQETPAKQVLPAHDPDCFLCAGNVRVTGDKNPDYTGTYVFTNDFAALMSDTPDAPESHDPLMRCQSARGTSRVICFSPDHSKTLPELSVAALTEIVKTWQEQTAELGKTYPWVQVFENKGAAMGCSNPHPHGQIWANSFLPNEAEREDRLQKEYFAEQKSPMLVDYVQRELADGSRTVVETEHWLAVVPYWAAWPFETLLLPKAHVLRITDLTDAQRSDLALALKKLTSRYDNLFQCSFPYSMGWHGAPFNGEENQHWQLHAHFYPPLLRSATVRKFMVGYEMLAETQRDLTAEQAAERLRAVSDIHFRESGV
UniProt P07024: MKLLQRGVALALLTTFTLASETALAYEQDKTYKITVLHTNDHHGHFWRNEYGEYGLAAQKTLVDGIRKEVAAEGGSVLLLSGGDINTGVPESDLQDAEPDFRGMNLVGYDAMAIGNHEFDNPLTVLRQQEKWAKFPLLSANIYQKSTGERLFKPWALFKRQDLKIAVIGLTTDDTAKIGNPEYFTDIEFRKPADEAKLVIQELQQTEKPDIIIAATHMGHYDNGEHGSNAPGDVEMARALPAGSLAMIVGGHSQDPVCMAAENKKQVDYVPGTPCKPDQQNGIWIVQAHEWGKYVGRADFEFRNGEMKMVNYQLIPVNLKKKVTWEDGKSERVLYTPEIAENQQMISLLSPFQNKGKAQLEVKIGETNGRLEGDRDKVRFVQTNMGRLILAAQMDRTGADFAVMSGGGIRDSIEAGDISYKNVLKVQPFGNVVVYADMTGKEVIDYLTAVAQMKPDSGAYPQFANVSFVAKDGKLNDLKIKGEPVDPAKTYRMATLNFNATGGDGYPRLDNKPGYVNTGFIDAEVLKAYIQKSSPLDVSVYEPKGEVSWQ
UniProt P08395: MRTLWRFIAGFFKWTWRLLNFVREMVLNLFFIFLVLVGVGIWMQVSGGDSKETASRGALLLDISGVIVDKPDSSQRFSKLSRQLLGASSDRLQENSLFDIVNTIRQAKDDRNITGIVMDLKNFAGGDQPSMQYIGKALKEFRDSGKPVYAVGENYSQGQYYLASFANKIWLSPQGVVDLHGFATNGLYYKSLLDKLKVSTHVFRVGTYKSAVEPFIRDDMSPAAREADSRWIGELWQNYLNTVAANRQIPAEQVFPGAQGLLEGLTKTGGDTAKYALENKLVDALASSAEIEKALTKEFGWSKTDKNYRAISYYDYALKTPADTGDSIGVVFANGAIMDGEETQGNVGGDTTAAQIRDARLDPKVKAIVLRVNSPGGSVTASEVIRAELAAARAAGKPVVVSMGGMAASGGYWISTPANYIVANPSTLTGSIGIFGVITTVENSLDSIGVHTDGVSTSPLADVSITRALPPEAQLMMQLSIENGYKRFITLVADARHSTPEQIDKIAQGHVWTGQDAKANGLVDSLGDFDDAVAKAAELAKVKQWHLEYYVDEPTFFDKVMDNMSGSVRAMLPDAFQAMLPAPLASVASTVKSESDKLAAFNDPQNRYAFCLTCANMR
UniProt P09184: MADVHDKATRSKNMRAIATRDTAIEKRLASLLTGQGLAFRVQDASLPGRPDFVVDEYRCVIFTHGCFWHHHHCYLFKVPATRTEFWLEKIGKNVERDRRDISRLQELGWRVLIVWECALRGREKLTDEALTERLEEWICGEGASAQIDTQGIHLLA
UniProt P09163: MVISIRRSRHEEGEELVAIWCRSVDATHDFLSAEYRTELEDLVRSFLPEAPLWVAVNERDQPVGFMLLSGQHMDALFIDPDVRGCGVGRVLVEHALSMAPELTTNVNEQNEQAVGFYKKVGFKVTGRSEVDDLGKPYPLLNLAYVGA
UniProt P07017: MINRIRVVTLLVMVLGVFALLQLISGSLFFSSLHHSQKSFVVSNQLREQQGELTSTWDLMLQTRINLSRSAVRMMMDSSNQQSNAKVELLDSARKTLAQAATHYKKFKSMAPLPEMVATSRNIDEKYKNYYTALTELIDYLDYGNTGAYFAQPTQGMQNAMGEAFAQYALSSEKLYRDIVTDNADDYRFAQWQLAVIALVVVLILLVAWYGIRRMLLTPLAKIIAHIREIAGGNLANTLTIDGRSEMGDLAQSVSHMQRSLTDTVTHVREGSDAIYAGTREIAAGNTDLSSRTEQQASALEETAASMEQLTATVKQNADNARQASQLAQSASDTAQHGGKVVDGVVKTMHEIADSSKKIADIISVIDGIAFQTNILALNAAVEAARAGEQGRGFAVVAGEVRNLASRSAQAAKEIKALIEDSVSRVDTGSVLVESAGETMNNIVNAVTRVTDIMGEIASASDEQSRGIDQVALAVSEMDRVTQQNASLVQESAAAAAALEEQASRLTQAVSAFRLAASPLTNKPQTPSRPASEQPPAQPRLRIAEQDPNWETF

Only a part is listed here, and it is no random draw. Most values lie at the level of the controls, where differences are scatter.
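Further: lysate desalted by size exclusion to strip endogenous ATP, peptide intensities built from DIA-NN precursor signals, and peptides missing any value discarded before comparison.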

Compound in the assay: Nc1ncnc2c1ncn2[C@@H]1O[C@H](COP(=O)(O)OP(=O)(O)OP(=O)(O)O)[C@@H](O)[C@H]1O [adenosine 5'-triphosphate]
Briefly: log2 fold change of tryptic peptide abundance, ligand vs vehicle (limited proteolysis) (log2 ratio); higher = more trypsin-susceptible (destabilized). The following applies: ligand concentration: 5 mM; sample: E. coli desalted lysate; replicate design: treated before aliquoting. As for the experimental part:
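HT-PELSA: desalted E. coli K-12 BW25113 lysate (with 12 mM MgCl2) incubated with 5 mM ATP (pH 7) or water for 30 min at 25 C, then a 4 min trypsin pulse at 22 C. Peptides were quantified by DIA-MS (4 replicates). Value is the peptide log2 fold change (treated/control); negative = stabilized. Scale: negative = ligand-stabilized region.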
For “UniProt P08202 (peptide sequence: PILDVQHLGIGGK, peptide start residue: 364)”, the log2 fold change was found to be 0.503.
For “UniProt P08369 (peptide sequence: EVTTDDELR, peptide start residue: 439)” the value was 0.139; for “UniProt P06721 (peptide sequence: ASSLVFDSVEAK, peptide start residue: 31)”, -0.269; for “UniProt P07026 (peptide sequence: ALGFLSFSR, peptide start residue: 129)”, 0.311.
For “UniProt P09162 (peptide sequence: EVSGDAAFSNQR, peptide start residue: 23)” the value was -0.324; for “UniProt P06965 (peptide sequence: TDALLYFGSK, peptide start residue: 4)”, -0.545.
For “UniProt P07363 (peptide sequence: SNESTSIR, peptide start residue: 258)” the value was 0.82; for “UniProt P09551 (peptide sequence: YFGDGTGVGLR, peptide start residue: 212)”, -0.35; for “UniProt P09835 (peptide sequence: VSVSLPQRYV, peptide start residue: 491)”, 0.321.
On to “UniProt P09831 (peptide sequence: VAQGAKPGEGGQLPGDKVTPYIAK, peptide start residue: 932)”, for which the log2 fold change was -0.61.
In the case of “UniProt P09153 (peptide sequence: AILNSDLIATK, peptide start residue: 4)” it was -0.0581; in that of “UniProt P08190 (peptide sequence: TVQVDDSSQSAHFPLQVR, peptide start residue: 126)”, 0.232.
In the case of “UniProt P09549 (peptide sequence: ILVGPDASKDKLK, peptide start residue: 186)” it was -0.482.
In the case of “UniProt P06996 (peptide sequence: DGNKLDLYGK, peptide start residue: 28)” it was -0.162; in that of “UniProt P09154 (peptide sequence: EITAEHWQSLLK, peptide start residue: 26)”, -0.162; in that of “UniProt P09127 (peptide sequence: HQEETYR, peptide start residue: 297)”, 1.08.
Consider “UniProt P06968 (peptide sequence: GEGGFGHSGRQ, peptide start residue: 142)”, for which the log2 fold change was 0.0774.
In the case of “UniProt P08331 (peptide sequence: VTVNDITETVR, peptide start residue: 196)” it was 0.37; in that of “UniProt P06715 (peptide sequence: KVMWHAAQIR, peptide start residue: 51)”, 0.614; in that of “UniProt P06974 (peptide sequence: LNPGDVLPIEKPDR, peptide start residue: 278)”, -0.754.
In the case of “UniProt P09155 (peptide sequence: ISAELLASR, peptide start residue: 323)” it was 0.744; in that of “UniProt P06988 (peptide sequence: MTVQELSK, peptide start residue: 390)”, 0.553; in that of “UniProt P07117 (peptide sequence: FAEADAHYHSAPPSR, peptide start residue: 484)”, 0.416.
In the case of “UniProt P08368 (peptide sequence: KFSTPSPVIR, peptide start residue: 124)” it was 0.702; in that of “UniProt P09126 (peptide sequence: CAIHYDGAEEAMR, peptide start residue: 161)”, -0.708.
As for “UniProt P07330 (peptide sequence: ASLAAHKPLSAPTTLK, peptide start residue: 133)”, the log2 fold change is -0.33.
In the case of “UniProt P06846 (peptide sequence: VLNDDPTLNVKEETK, peptide start residue: 21)” it was -0.0727; in that of “UniProt P07003 (peptide sequence: IKAPIVHALR, peptide start residue: 226)”, 0.864.
As for “UniProt P07658 (peptide sequence: IADMHIALK, peptide start residue: 211)”, the log2 fold change was -0.55.
For “UniProt P08245 (peptide sequence: AAPVRPKGDGVVR, peptide start residue: 22)” the value was 0.54.
For “UniProt P09148 (peptide sequence: DLTAEQAAER, peptide start residue: 325)” the value was 0.356.
Consider “UniProt P09099 (peptide sequence: TGGDVGPALGAAR, peptide start residue: 418)”, for which the log2 fold change stood at 0.457.
In the case of “UniProt P07024 (peptide sequence: MVNYQLIPVNLKK, peptide start residue: 309)” it was -0.272.
For “UniProt P08395 (peptide sequence: FITLVADAR, peptide start residue: 488)” the value was 0.232; for “UniProt P09184 (peptide sequence: TEFWLEK, peptide start residue: 83)”, -0.226.
In the case of “UniProt P07021 (peptide sequence: SNLTTQGLGKK, peptide start residue: 125)” it was -0.434; in that of “UniProt P09163 (peptide sequence: SRHEEGEELVAIWCR, peptide start residue: 8)”, 0.286; in that of “UniProt P07017 (peptide sequence: EGSDAIYAGTR, peptide start residue: 270)”, 0.12.
Regarding “UniProt P0A703 (peptide sequence: LRVDTGDSLIVK, peptide start residue: 97)”, the log2 fold change came to 0.614.
For “UniProt P09394 (peptide sequence: GASGYLPEHTLPAK, peptide start residue: 38)” the value was 0.419.
